According to article PMC4032329:
These are yes or no findings as the source states them, for the method shown. Binding seen in cells or lysates may run through a third protein. Some entries that bind do so weakly or less than the wild type. Sequences can lack the tags named with a protein.

Protein sequences, listed by entry. Tags and fused reporters are not part of them.
UniProt Q96EB6: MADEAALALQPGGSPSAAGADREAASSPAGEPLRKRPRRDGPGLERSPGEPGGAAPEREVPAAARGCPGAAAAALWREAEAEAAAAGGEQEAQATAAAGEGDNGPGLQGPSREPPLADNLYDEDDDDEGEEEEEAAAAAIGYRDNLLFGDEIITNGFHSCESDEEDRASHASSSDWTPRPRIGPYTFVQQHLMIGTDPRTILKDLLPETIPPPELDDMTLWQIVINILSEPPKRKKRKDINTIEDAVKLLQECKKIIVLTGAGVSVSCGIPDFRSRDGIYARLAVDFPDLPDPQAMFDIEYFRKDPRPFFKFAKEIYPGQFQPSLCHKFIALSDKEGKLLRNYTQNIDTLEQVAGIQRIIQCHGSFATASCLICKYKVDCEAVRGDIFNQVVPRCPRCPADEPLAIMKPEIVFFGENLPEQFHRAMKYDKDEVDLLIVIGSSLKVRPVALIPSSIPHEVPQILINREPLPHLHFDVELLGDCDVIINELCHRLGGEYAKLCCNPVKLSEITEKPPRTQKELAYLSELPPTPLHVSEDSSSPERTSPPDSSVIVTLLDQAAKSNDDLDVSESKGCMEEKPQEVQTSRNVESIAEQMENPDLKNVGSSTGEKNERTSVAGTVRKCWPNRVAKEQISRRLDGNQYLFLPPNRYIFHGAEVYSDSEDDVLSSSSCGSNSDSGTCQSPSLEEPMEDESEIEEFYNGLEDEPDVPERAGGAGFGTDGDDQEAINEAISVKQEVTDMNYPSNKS

B1: HA-tagged NFATc3 (1-407AA) (domain or fragment, UniProt Q12968 1-407)
chain: MTTANCGAHDELDFKLVFGEDGAPAPPPPGSRPADLEPDDCASIYIFNVDPPPSTLTTPLCLPHHGLPSHSSVLSPSFQLQSHKNYEGTCEIPESKYSPLGGPKPFECPSIQITSISPNCHQELDAHEDDLQINDPEREFLERPSRDHLYLPLEPSYRESSLSPSPASSISSRSWFSDASSCESLSHIYDDVDSELNEAAARFTLGSPLTSPGGSPGGCPGEETWHQQYGLGHSLSPRQSPCHSPRSSVTDENWLSPRPASGPSSRPTSPCGKRRHSSAEVCYAGSLSPHHSPVPSPGHSPRGSVTEDTWLNASVHGGSGLGPAVFPFQYCVETDIPLKTRKTSEDQAAILPGKLELCSDDQGSLSPARETSIDDGLGSQYPLKKDSCGDQFLSVPSPFTWSKPKPG
B2: HA-tagged full-length NFATc3 (protein, UniProt Q12968 1-1075)
chain: MTTANCGAHDELDFKLVFGEDGAPAPPPPGSRPADLEPDDCASIYIFNVDPPPSTLTTPLCLPHHGLPSHSSVLSPSFQLQSHKNYEGTCEIPESKYSPLGGPKPFECPSIQITSISPNCHQELDAHEDDLQINDPEREFLERPSRDHLYLPLEPSYRESSLSPSPASSISSRSWFSDASSCESLSHIYDDVDSELNEAAARFTLGSPLTSPGGSPGGCPGEETWHQQYGLGHSLSPRQSPCHSPRSSVTDENWLSPRPASGPSSRPTSPCGKRRHSSAEVCYAGSLSPHHSPVPSPGHSPRGSVTEDTWLNASVHGGSGLGPAVFPFQYCVETDIPLKTRKTSEDQAAILPGKLELCSDDQGSLSPARETSIDDGLGSQYPLKKDSCGDQFLSVPSPFTWSKPKPGHTPIFRTSSLPPLDWPLPAHFGQCELKIEVQPKTHHRAHYETEGSRGAVKASTGGHPVVKLLGYNEKPINLQMFIGTADDRYLRPHAFYQVHRITGKTVATASQEIIIASTKVLEIPLLPENNMSASIDCAGILKLRNSDIELRKGETDIGRKNTRVRLVFRVHIPQPSGKVLSLQIASIPVECSQRSAQELPHIEKYSINSCSVNGGHEMVVTGSNFLPESKIIFLEKGQDGRPQWEVEGKIIREKCQGAHIVLEVPPYHNPAVTAAVQVHFYLCNGKRKKSQSQRFTYTPVLMKQEHREEIDLSSVPSLPVPHPAQTQRPSSDSGCSHDSVLSGQRSLICSIPQTYASMVTSSHLPQLQCRDESVSKEQHMIPSPIVHQPFQVTPTPPVGSSYQPMQTNVVYNGPTCLPINAASSQEFDSVLFQQDATLSGLVNLGCQPLSSIPFHSSNSGSTGHLLAHTPHSVHTLPHLQSMGYHCSNTGQRSLSSPVADQITGQPSSQLQPITYGPSHSGSATTASPAASHPLASSPLSGPPSPQLQPMPYQSPSSGTASSPSPATRMHSGQHSTQAQSTGQGGLSAPSSLICHSLCDPASFPPDGATVSIKPEPEDREPNFATIGLQDITLDDVNEIIGRDMSQISVSQGAGVSRQAPLPSPESLDLGRSDGL
B3: HA-tagged NFATc3 (408-674AA) (domain or fragment, UniProt Q12968 408-674)
chain: HTPIFRTSSLPPLDWPLPAHFGQCELKIEVQPKTHHRAHYETEGSRGAVKASTGGHPVVKLLGYNEKPINLQMFIGTADDRYLRPHAFYQVHRITGKTVATASQEIIIASTKVLEIPLLPENNMSASIDCAGILKLRNSDIELRKGETDIGRKNTRVRLVFRVHIPQPSGKVLSLQIASIPVECSQRSAQELPHIEKYSINSCSVNGGHEMVVTGSNFLPESKIIFLEKGQDGRPQWEVEGKIIREKCQGAHIVLEVPPYHNPAVTA

Target: Myc-tagged SIRT1 (UniProt Q96EB6)
Experiment: co-IP; HEK293 cells co-transfected with Myc-tagged SIRT1 and HA-tagged NFAT (or full-length or truncated NFATc3); lysate in IP buffer (50 mM Tris pH 8.0, 150 mM NaCl), specific antibodies and protein A- or G-agarose, western blotting

binding, binds:
B1, B2, B3
